From patent publication US20230365711A1 (Hoffmann-La Roche, published 2023)
No constants are given. Whether binding was seen depends on the method and setting.

Tests used:
[1] = molecular target: huNABA-avi-his (hybrid protein N-A1-B3-A2: N and A1 domains of human BGP, B3 domain of human CEA, A2 domain of BGP, with precision protease site, avi tag and (His)6 tag), biotinylated (human); test: Proteon SPR, antibody analyte on biotinylated NABA (Neutravidin chip); concentrations from paragraph 235
[2] = molecular target: huNABA-avi-his (hybrid protein N-A1-B3-A2: N and A1 domains of human BGP, B3 domain of human CEA, A2 domain of BGP, with precision protease site, avi tag and (His)6 tag), biotinylated (human); test: condition: analyte concentrations of 100, 50, 25, 12.5, 6.25, and 0 nM; SPR (Proteon), antibody as analyte on biotinylated NABA immobilized on a Neutravidin-coated chip

B1: antibody with heavy chain CH7A (W95Y) and light chain 2F1 (antibody, V domains shown)
VH: QVQLVQSGSELKKPGASVKVSCKASGYTFTEFGMNWVRQAPGQGLEWMGWINTKTGEATYVEEFKGRFVFSLDTSVSTAYLQISSLKAEDTAVYYCARYDFYDYVEAMDYWGQGTTVTVSS
VL: DIQMTQSPSSLSASVGDRVTITCKASAAVGTYVAWYQQKPGKAPKLLIYSASYRKRGVPSRFSGSGSGTDFTLTISSLQPEDFATYYCHQYYTYPLFTFGQGTKLEIKR
- binding [1]: no binding (tested: 100 nM)
- binding [2]: no binding
